Over roughly 33,000 sequences, “E-score (-0.5 to 0.5)” has its median near -0.016; the highest 2% begin near 0.3. The list shows a part of the results.

The values below come from the supplement of paper PMC3334620.

In the assay the target is T1, Yer184c (UniProt P39961).
T1 sequence: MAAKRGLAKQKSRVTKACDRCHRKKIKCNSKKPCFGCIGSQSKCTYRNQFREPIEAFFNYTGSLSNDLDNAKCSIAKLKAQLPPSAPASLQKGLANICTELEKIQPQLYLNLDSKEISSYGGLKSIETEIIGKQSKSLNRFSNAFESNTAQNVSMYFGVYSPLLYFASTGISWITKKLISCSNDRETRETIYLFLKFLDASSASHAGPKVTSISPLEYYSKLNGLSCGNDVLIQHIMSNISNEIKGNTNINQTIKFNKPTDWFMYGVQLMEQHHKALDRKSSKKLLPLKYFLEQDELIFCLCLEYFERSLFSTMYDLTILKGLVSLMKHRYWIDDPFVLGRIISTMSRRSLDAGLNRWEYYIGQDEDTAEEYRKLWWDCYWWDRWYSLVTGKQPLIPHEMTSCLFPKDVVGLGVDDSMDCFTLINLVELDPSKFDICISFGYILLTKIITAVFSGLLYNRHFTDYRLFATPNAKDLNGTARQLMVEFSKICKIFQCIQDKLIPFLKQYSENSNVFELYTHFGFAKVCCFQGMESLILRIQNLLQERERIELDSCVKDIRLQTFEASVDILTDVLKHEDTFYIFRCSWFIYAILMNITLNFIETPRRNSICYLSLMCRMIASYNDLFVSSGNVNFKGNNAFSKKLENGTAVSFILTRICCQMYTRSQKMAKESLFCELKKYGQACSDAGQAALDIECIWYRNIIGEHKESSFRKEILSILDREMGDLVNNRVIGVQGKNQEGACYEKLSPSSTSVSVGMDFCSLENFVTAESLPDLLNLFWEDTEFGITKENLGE
Put plainly: PBM E-score (8-mer binding enrichment) (E-score (-0.5 to 0.5)); higher = stronger / more preferred TF binding. The following applies: protein concentration: 100 nM; construct: GST-full length. The essentials:
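PURExpress in vitro transcription/translation supplied GST-tagged yeast transcription factors, either full-length or DNA-binding domain. Applied at about 100-200 nM to universal all-10-mer Agilent arrays double-stranded by primer extension, the bound protein was detected with fluorescent anti-GST. E-scores, modified Wilcoxon-Mann-Whitney statistics, were given by the Universal PBM Analysis Suite to ungapped eight-base words pooled with their reverse complements after masliner normalisation.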
AGCGTTCG: the “PBM E-score” value was -0.0742.
The same measure for ATAGGGCG: -0.15.
As for ATAAGCCA, the “PBM E-score” value was -0.0435.
The same measure for CGCCCACA: -0.0633; for ACAGGTGG: -0.186.
Consider AAACTCGA, for which the “PBM E-score” value is 0.0301.
The same measure for CTGCTCGA: -0.179.
The same measure for ACCATATG: -0.282; for TAGCCCCA: -0.287.
As to CAGAAGAC, the “PBM E-score” value is -0.0508.
Regarding CGCGTGCC, the “PBM E-score” value was -0.102.
Take AGGTCCAG: the “PBM E-score” value is -0.00849.
The same measure for CCCCCTCC: -0.297; for CTAAGGAA: 0.152.
The same measure for GTGAGGCA: -0.178; for ACACATGG: -0.084.
AAGTCCCT: the “PBM E-score” value is -0.258.
The same measure for TCCCCTCA: -0.2.
The same measure for GGAGAAGA: -0.186.
The same measure for CTTTGCTA: -0.0566; for GCGTTTAC: -0.0519.
Turning to CGCCGTAA, the “PBM E-score” value worked out at 0.194.
The same measure for CCGCATAG: 0.0243; for GCTTAAAC: 0.0277; for CTCGCCAA: -0.0568.
For ACCATGTA, the “PBM E-score” value was -0.0394.
ATTCCGTA: the “PBM E-score” value turned out to be 0.322.
As for ATCACCGG, the “PBM E-score” value was determined as 0.112.
The same measure for ATTTGGTG: -0.0614; for AGGAGCAG: -0.262.
The same measure for CATTACTC: 0.0786; for GTAATGAA: 0.0451.
Turning to AAACCATT, the “PBM E-score” value was -0.107.
For ATGTGCCC, the “PBM E-score” value is -0.0806.
CCTGAGTC: the “PBM E-score” value is -0.0246.
The same measure for GAGAACGC: -0.153.
The same measure for ACTTAGGG: 0.0512; for CGGTTTGC: 0.149.
Turning to AAAGATTG, the “PBM E-score” value is -0.188.
Regarding CTGAATCC, the “PBM E-score” value is 0.0323.
The same measure for GGGCGGCA: -0.0593.
CCGAGCGG: the “PBM E-score” value amounted to 0.228.
With AGGAATCG, the “PBM E-score” value came out at 0.0578.
For the sequence AGCCTCAG, the “PBM E-score” value is -0.144.
The same measure for GTCATTTA: -0.143; for CATGGTGC: -0.169; for AGGCGATC: -0.168.
Take AAGATCCC: the “PBM E-score” value worked out at 0.00396.
In the case of ACCGCGAT, the “PBM E-score” value was 0.124.
The same measure for CGTGGTGC: -0.0856; for ATTGGTGA: -0.0742.
Turning to GGATGAGA, the “PBM E-score” value was -0.0959.
The same measure for GAGTTCAA: 0.155; for CCACATGC: -0.162.
The same measure for ATTACACA: 0.0824; for CAGGAGCA: -0.0755.
As for GCGGCCGA, the “PBM E-score” value stood at 0.242.
In the case of CATCGTCC, the “PBM E-score” value stood at 0.0738.
The same measure for AAGACTGC: -0.2; for TAAATAGA: 0.0603; for AGCGACTG: -0.0337.
The same measure for ACACAGCA: 0.0107.
For the sequence CACCGCGC, the “PBM E-score” value was -0.119.
The same measure for AAGTTTAG: 0.0157.
The same measure for AGGGTTTG: -0.165; for ATCACACG: 0.0979; for ATTCTGAA: 0.147.
The same measure for CGGTTTGA: 0.149.
With AACAATAG, the “PBM E-score” value was -0.178.
The same measure for CTGATCAG: 0.142; for CGTATCAA: -0.00371.
The same measure for GCACTTGA: -0.0825; for ATCACGAC: -0.0343; for AGATTCTC: 0.11.
For ACACCTTA, the “PBM E-score” value is -0.0394.
ATGCGCTC: the “PBM E-score” value was -0.0499.
With TGATTCCA, the “PBM E-score” value is -0.127.
With ATTGTCGA, the “PBM E-score” value amounted to 0.139.
The same measure for ACATAAGA: 0.0039; for AATGCAGG: -0.0832; for CACATGTC: -0.135.
The same measure for AACAGACA: 0.166; for AACAGCAG: 0.0582; for AGATGCAA: -0.206.
The same measure for CAATTCCG: 0.315; for GACAGACC: -0.0221.
For AGAGTCCT, the “PBM E-score” value was -0.205.
As to GATCCTGC, the “PBM E-score” value is -0.0407.
The same measure for CCCGAAGC: 0.0751; for TACTGCCA: -0.0195.
For CACTTATG, the “PBM E-score” value is 0.0163.
The same measure for GACCCAGA: -0.0246.
The same measure for ATTAAAAC: 0.286; for GCGCCAAC: -0.0536.
